# Data from the supplement of paper PMC8728848.
# The list shows a part of the results.
# B1: PX15642A-pgi-501-20-501 (Parabacteroides gingivalis) (protein)
# chain: CELDRDPEGKDFQQPYTSFVQTKQNRDGLYALLRNTENPRMHFYQELQSDMYCTTITDGNSLAPFVNWDLGILNDHGRADEDEVSGIAGYYFVYNRLNQQANAFVNNTEAALQNQVYKNSTEIANAKSFLAEGKVLQALAIWRLMDRFSFHESVTEVNSGAKDLGVILLKEYNPGYIGPRATKAQCYDYILSRLSEAIEVLPENRESVLYVSRDYAYALRARIYLALGEYGKAAADAKMVVDKYPLIGAADASEFENIYRSDANNPEIIFRGFASATLGSFTATTLNGAAPAGKDIKYNPSAVPFQWVVDLYENEDFRKSVYIAKVVKKDKGYLVNKFLEDKAYRDVQDKPNLKVGARYFSVAEVYLILVESALQTGDTPTAEKYLKALSKARGAEVSVVNMEALQAERTRELIGEGSRLRDMVRWSIPNNHDAFETQPGLEGFANTTPLKAQAPVGFYAYTWEFPQRDRQTNPQLIKNWPI
# Tests used:
# Experiment in all cases: glycan array binding signal (z-score within array); higher = stronger binding
# Details in all cases: glycan notation: IUPAC condensed, linker removed
# [1] = target: Glc(b1-6)Glc
# Method in brief: (§1)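 Columns mapping to the same glycan were averaged after glycan names were converted to IUPAC-condensed notation. The data come from 3228 arrays in the Consortium for Functional Glycomics database, limited to those with an available protein sequence. Binding is reported as a within-array Z-score averaged across arrays of one protein sequence and across linkers.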
# [2] = target: GlcA(b1-3)Gal
# Method in brief: as §1
# [3] = target: GlcA(b1-3)GlcNAc
# Method in brief: as §1
# [4] = target: GlcA(b1-6)Gal
# Method in brief: as §1
# [5] = target: GlcA3S(b1-3)Gal(b1-4)GlcNAc(b1-2)Man
# Method in brief: as §1
# [6] = target: GlcA3S(b1-3)Gal(b1-4)GlcNAc(b1-3)Gal(b1-4)Glc
# Method in brief: as §1
# [7] = target: GlcNAc(a1-3)Gal(b1-4)GlcNAc
# Method in brief: as §1
# [8] = target: GlcNAc(a1-4)Gal(b1-3)GlcNAc
# Method in brief: as §1
# [9] = target: GlcNAc(a1-4)Gal(b1-4)GalNAc
# Method in brief: as §1
# [10] = target: GlcNAc(a1-4)Gal(b1-4)GlcNAc
# Method in brief: as §1
# [11] = target: GlcNAc(a1-4)Gal(b1-4)GlcNAc(b1-3)Gal(b1-4)Glc
# Method in brief: as §1
# [12] = target: GlcNAc(a1-4)Gal(b1-4)GlcNAc(b1-3)Gal(b1-4)GlcNAc
# Method in brief: as §1
# [13] = target: GlcNAc(a1-4)Gal(b1-4)GlcNAc(b1-3)Gal(b1-4)GlcNAc(b1-3)Gal(b1-4)GlcNAc
# Method in brief: as §1
# [14] = target: GlcNAc(a1-4)Gal(b1-4)GlcNAc(b1-3)Gal(b1-4)[Fuc(a1-3)]GlcNAc(b1-3)Gal(b1-4)[Fuc(a1-3)]GlcNAc
# Method in brief: as §1
# [15] = target: GlcNAc(a1-6)Gal(b1-4)GlcNAc
# Method in brief: as §1
# [16] = target: GlcNAc(b1-2)Gal(b1-3)GalNAc
# Method in brief: as §1
# [17] = target: GlcNAc(b1-2)Man(a1-3)[GlcNAc(b1-2)Man(a1-6)]Man(b1-4)GlcNAc(b1-4)GlcNAc
# Method in brief: as §1
# [18] = target: GlcNAc(b1-2)Man(a1-3)[GlcNAc(b1-2)Man(a1-6)]Man(b1-4)GlcNAc(b1-4)[Fuc(a1-6)]GlcNAc
# Method in brief: as §1
# [19] = target: GlcNAc(b1-2)Man(a1-3)[GlcNAc(b1-4)][GlcNAc(b1-2)Man(a1-6)]Man(b1-4)GlcNAc(b1-4)GlcNAc
# Method in brief: as §1
# [20] = target: GlcNAc(b1-2)Man(a1-3)[GlcNAc(b1-4)][GlcNAc(b1-2)Man(a1-6)]Man(b1-4)GlcNAc(b1-4)[Fuc(a1-6)]GlcNAc
# Method in brief: as §1
# [21] = target: GlcNAc(b1-2)[GlcNAc(b1-4)]Man(a1-3)[GlcNAc(b1-2)Man(a1-6)]Man(b1-4)GlcNAc(b1-4)GlcNAc
# Method in brief: as §1
# [22] = target: GlcNAc(b1-2)[GlcNAc(b1-4)]Man(a1-3)[GlcNAc(b1-4)][GlcNAc(b1-2)Man(a1-6)]Man(b1-4)GlcNAc(b1-4)GlcNAc
# Method in brief: as §1
# [23] = target: GlcNAc(b1-2)[GlcNAc(b1-4)]Man(a1-3)[GlcNAc(b1-4)][GlcNAc(b1-2)[GlcNAc(b1-6)]Man(a1-6)]Man(b1-4)GlcNAc(b1-4)GlcNAc
# Method in brief: as §1
# [24] = target: GlcNAc(b1-2)[GlcNAc(b1-4)]Man(a1-3)[GlcNAc(b1-4)][GlcNAc(b1-2)[GlcNAc(b1-6)]Man(a1-6)]Man(b1-4)GlcNAc(b1-4)[Fuc(a1-6)]GlcNAc
# Method in brief: as §1
# [25] = target: GlcNAc(b1-2)[GlcNAc(b1-6)]Man(a1-6)[GlcNAc(b1-2)Man(a1-3)]Man(b1-4)GlcNAc(b1-4)GlcNAc
# Method in brief: as §1
# [26] = target: GlcNAc(b1-2)[GlcNAc(b1-6)]Man(a1-6)[GlcNAc(b1-2)Man(a1-3)]Man(b1-4)GlcNAc(b1-4)[Fuc(a1-6)]GlcNAc
# Method in brief: as §1
# [27] = target: GlcNAc(b1-2)[GlcNAc(b1-6)]Man(a1-6)[GlcNAc(b1-4)][GlcNAc(b1-2)Man(a1-3)]Man(b1-4)GlcNAc(b1-4)GlcNAc
# Method in brief: as §1
# [28] = target: GlcNAc(b1-3)Fuc
# Method in brief: as §1
# [29] = target: GlcNAc(b1-3)Gal
# Method in brief: as §1
# [30] = target: GlcNAc(b1-3)Gal(b1-3)GalNAc
# Method in brief: as §1
# [31] = target: GlcNAc(b1-3)Gal(b1-4)Glc
# Method in brief: as §1
# [32] = target: GlcNAc(b1-3)Gal(b1-4)GlcNAc
# Method in brief: as §1
# [33] = target: GlcNAc(b1-3)Gal(b1-4)GlcNAc(b1-2)Man(a1-3)[GlcNAc(b1-3)Gal(b1-4)GlcNAc(b1-2)Man(a1-6)]Man(b1-4)GlcNAc(b1-4)GlcNAc
# Method in brief: as §1
# [34] = target: GlcNAc(b1-3)Gal(b1-4)GlcNAc(b1-2)Man(a1-3)[GlcNAc(b1-3)Gal(b1-4)GlcNAc(b1-2)Man(a1-6)]Man(b1-4)GlcNAc(b1-4)[Fuc(a1-6)]GlcNAc
# Method in brief: as §1
# [35] = target: GlcNAc(b1-3)Gal(b1-4)GlcNAc(b1-2)[GlcNAc(b1-3)Gal(b1-4)GlcNAc(b1-6)]Man(a1-6)[GlcNAc(b1-3)Gal(b1-4)GlcNAc(b1-2)Man(a1-3)]Man(b1-4)GlcNAc(b1-4)GlcNAc
# Method in brief: as §1
# [36] = target: GlcNAc(b1-3)Gal(b1-4)GlcNAc(b1-3)Gal(b1-4)GlcNAc
# Method in brief: as §1
# [37] = target: GlcNAc(b1-3)Gal(b1-4)GlcNAc(b1-3)Gal(b1-4)GlcNAc(b1-2)Man(a1-3)[GlcNAc(b1-3)Gal(b1-4)GlcNAc(b1-3)Gal(b1-4)GlcNAc(b1-2)Man(a1-6)]Man(b1-4)GlcNAc(b1-4)GlcNAc
# Method in brief: as §1
# [38] = target: GlcNAc(b1-3)Gal(b1-4)GlcNAc(b1-3)Gal(b1-4)GlcNAc(b1-2)Man(a1-3)[GlcNAc(b1-3)Gal(b1-4)GlcNAc(b1-3)Gal(b1-4)GlcNAc(b1-2)Man(a1-6)]Man(b1-4)GlcNAc(b1-4)[Fuc(a1-6)]GlcNAc
# Method in brief: as §1
# [39] = target: GlcNAc(b1-3)Gal(b1-4)GlcNAc(b1-3)Gal(b1-4)GlcNAc(b1-2)[GlcNAc(b1-3)Gal(b1-4)GlcNAc(b1-3)Gal(b1-4)GlcNAc(b1-6)]Man(a1-6)[GlcNAc(b1-3)Gal(b1-4)GlcNAc(b1-3)Gal(b1-4)GlcNAc(b1-2)Man(a1-3)]Man(b1-4)GlcNAc(b1-4)[Fuc(a1-6)]GlcNAc
# Method in brief: as §1
# [40] = target: GlcNAc(b1-3)Gal(b1-4)GlcNAc(b1-3)Gal(b1-4)GlcNAc(b1-3)Gal(b1-4)GlcNAc(b1-2)Man(a1-3)[GlcNAc(b1-3)Gal(b1-4)GlcNAc(b1-3)Gal(b1-4)GlcNAc(b1-3)Gal(b1-4)GlcNAc(b1-2)Man(a1-6)]Man(b1-4)GlcNAc(b1-4)GlcNAc
# Method in brief: as §1
# [41] = target: GlcNAc(b1-3)Gal(b1-4)GlcNAc(b1-3)Gal(b1-4)GlcNAc(b1-3)Gal(b1-4)GlcNAc(b1-2)Man(a1-3)[GlcNAc(b1-3)Gal(b1-4)GlcNAc(b1-3)Gal(b1-4)GlcNAc(b1-3)Gal(b1-4)GlcNAc(b1-2)Man(a1-6)]Man(b1-4)GlcNAc(b1-4)[Fuc(a1-6)]GlcNAc
# Method in brief: as §1
# [42] = target: GlcNAc(b1-3)Gal(b1-4)GlcNAc(b1-3)Gal(b1-4)GlcNAc(b1-3)Gal(b1-4)GlcNAc(b1-2)[GlcNAc(b1-3)Gal(b1-4)GlcNAc(b1-3)Gal(b1-4)GlcNAc(b1-3)Gal(b1-4)GlcNAc(b1-6)]Man(a1-6)[GlcNAc(b1-3)Gal(b1-4)GlcNAc(b1-3)Gal(b1-4)GlcNAc(b1-3)Gal(b1-4)GlcNAc(b1-2)Man(a1-3)]Man(b1-4)GlcNAc(b1-4)[Fuc(a1-6)]GlcNAc
# Method in brief: as §1
# [43] = target: GlcNAc(b1-3)Gal(b1-4)GlcNAc(b1-3)Gal(b1-4)GlcNAc(b1-3)Gal(b1-4)GlcNAc(b1-3)Gal(b1-4)GlcNAc(b1-2)Man(a1-3)[GlcNAc(b1-3)Gal(b1-4)GlcNAc(b1-3)Gal(b1-4)GlcNAc(b1-3)Gal(b1-4)GlcNAc(b1-3)Gal(b1-4)GlcNAc(b1-2)Man(a1-6)]Man(b1-4)GlcNAc(b1-4)GlcNAc
# Method in brief: as §1
# [44] = target: GlcNAc(b1-3)Gal(b1-4)GlcNAc(b1-3)Gal(b1-4)GlcNAc(b1-3)Gal(b1-4)GlcNAc(b1-3)Gal(b1-4)GlcNAc(b1-2)Man(a1-3)[GlcNAc(b1-3)Gal(b1-4)GlcNAc(b1-3)Gal(b1-4)GlcNAc(b1-3)Gal(b1-4)GlcNAc(b1-3)Gal(b1-4)GlcNAc(b1-2)Man(a1-6)]Man(b1-4)GlcNAc(b1-4)[Fuc(a1-6)]GlcNAc
# Method in brief: as §1
# [45] = target: GlcNAc(b1-3)Gal(b1-4)GlcNAc(b1-3)Gal(b1-4)GlcNAc(b1-3)Gal(b1-4)GlcNAc(b1-3)Gal(b1-4)GlcNAc(b1-2)[GlcNAc(b1-3)Gal(b1-4)GlcNAc(b1-3)Gal(b1-4)GlcNAc(b1-3)Gal(b1-4)GlcNAc(b1-3)Gal(b1-4)GlcNAc(b1-6)]Man(a1-6)[GlcNAc(b1-3)Gal(b1-4)GlcNAc(b1-3)Gal(b1-4)GlcNAc(b1-3)Gal(b1-4)GlcNAc(b1-3)Gal(b1-4)GlcNAc(b1-2)Man(a1-3)]Man(b1-4)GlcNAc(b1-4)[Fuc(a1-6)]GlcNAc
# Method in brief: as §1
binder,measurement,setting,value
B1,glycan array binding signal (z-score),[1],-0.254
same,glycan array binding signal (z-score),[2],-0.935
same,glycan array binding signal (z-score),[3],0.443
same,glycan array binding signal (z-score),[4],-0.172
same,glycan array binding signal (z-score),[5],0.025
same,glycan array binding signal (z-score),[6],-0.158
same,glycan array binding signal (z-score),[7],-0.268
same,glycan array binding signal (z-score),[8],-0.595
same,glycan array binding signal (z-score),[9],-0.137
same,glycan array binding signal (z-score),[10],-0.517
same,glycan array binding signal (z-score),[11],0.142
same,glycan array binding signal (z-score),[12],-0.768
same,glycan array binding signal (z-score),[13],-0.663
same,glycan array binding signal (z-score),[14],0.402
same,glycan array binding signal (z-score),[15],-0.112
same,glycan array binding signal (z-score),[16],-0.131
same,glycan array binding signal (z-score),[17],-0.55
same,glycan array binding signal (z-score),[18],0.116
same,glycan array binding signal (z-score),[19],-0.514
same,glycan array binding signal (z-score),[20],-0.108
same,glycan array binding signal (z-score),[21],0.13
same,glycan array binding signal (z-score),[22],-0.243
same,glycan array binding signal (z-score),[23],-0.203
same,glycan array binding signal (z-score),[24],-0.313
same,glycan array binding signal (z-score),[25],0.522
same,glycan array binding signal (z-score),[26],-0.176
same,glycan array binding signal (z-score),[27],-0.076
same,glycan array binding signal (z-score),[28],-0.579
same,glycan array binding signal (z-score),[29],0.024
same,glycan array binding signal (z-score),[30],0.701
same,glycan array binding signal (z-score),[31],-0.356
same,glycan array binding signal (z-score),[32],-0.835
same,glycan array binding signal (z-score),[33],-0.48
same,glycan array binding signal (z-score),[34],0.664
same,glycan array binding signal (z-score),[35],0.074
same,glycan array binding signal (z-score),[36],0.772
same,glycan array binding signal (z-score),[37],2.32
same,glycan array binding signal (z-score),[38],0.337
same,glycan array binding signal (z-score),[39],0.343
same,glycan array binding signal (z-score),[40],0.445
same,glycan array binding signal (z-score),[41],-0.047
same,glycan array binding signal (z-score),[42],0.203
same,glycan array binding signal (z-score),[43],0.632
same,glycan array binding signal (z-score),[44],0.883
same,glycan array binding signal (z-score),[45],-0.157

# Fetched one by one from the list above (3):
binder,measurement,setting,value
B1,glycan array binding signal (z-score),[23],-0.203
same,glycan array binding signal (z-score),[4],-0.172
same,glycan array binding signal (z-score),[10],-0.517
